From PMC5105952
Positions count from the first letter of the chain named. No constants are given. Whether binding was seen depends on the method and setting.

Legend:
Assay in all cases: two-hybrid; yeast three-hybrid: Tea fragments on the Gal4 activation domain, either Ver or Moi on the LexA DNA-binding domain, the other of Moi or Ver as a third stand-alone protein
[1] = target: T1, Moi G45R (Drosophila melanogaster) (UniProt B7Z0L8)
T1 sequence: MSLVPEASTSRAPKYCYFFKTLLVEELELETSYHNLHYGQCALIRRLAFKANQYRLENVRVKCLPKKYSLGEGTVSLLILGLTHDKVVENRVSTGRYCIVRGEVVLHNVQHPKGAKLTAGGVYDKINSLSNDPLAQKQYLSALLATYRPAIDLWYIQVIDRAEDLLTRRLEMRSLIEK

[2] = target: T2, Ver D96G (Drosophila melanogaster) (UniProt Q9VTZ2)
T2 sequence: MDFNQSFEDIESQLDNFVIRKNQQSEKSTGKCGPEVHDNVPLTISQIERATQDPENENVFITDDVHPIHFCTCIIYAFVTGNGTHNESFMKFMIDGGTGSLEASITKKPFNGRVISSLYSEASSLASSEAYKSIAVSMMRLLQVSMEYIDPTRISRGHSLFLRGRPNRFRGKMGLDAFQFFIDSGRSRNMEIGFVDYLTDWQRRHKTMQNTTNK

[3] = target: T3, Ver L101P (Drosophila melanogaster) (UniProt Q9VTZ2)
T3 sequence: T2 sequence with G96D, L101P

[4] = target: T4, Ver L162P (Drosophila melanogaster) (UniProt Q9VTZ2)
T4 sequence: T2 sequence with G96D, L162P

Measured: binding

C-terminus of Tea (Drosophila melanogaster) (domain or fragment)
no binding: [1] | [2] | [3] | [4]
